{"source": "patent US12551499B2", "about": "(Atea Pharmaceuticals, Inc., priority 2020, dated 2026)", "origin": "cited, not measured here", "test_system": "HCV", "conditions": "HCV-infected subjects, Phase 2; cited from earlier work", "note": "At least one compound was matched to its structure with a doubt left."}
{"molecule": "CNc1nc(N)nc2c1ncn2[C@@H]1O[C@H](CO[P@@](=O)(N[C@@H](C)C(=O)OC(C)C)Oc2ccccc2)[C@@H](O)[C@@]1(C)F", "note": "[Compound 2A]", "values": [{"measurement": "efficacy", "result": "high rate of efficacy"}]}
